# In the supplement of paper PMC5355238:
# Where a name gives a salt, the structure may show the parent alone. Some of the results follow. Most values lie at the level of the controls, where differences are scatter.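 Reh is a human leukemia cell line; the read-out is the median γH2AX antibody signal in S-phase cells by flow cytometry, with the score counting standard deviations from the median difference of each paired set of plates. Scores above 2.5 were called candidate hits, while scores below -2 mark compounds that lowered the MK1775-induced damage.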
# Test system: Reh
# Assay: Z' of S-phase gammaH2AX difference (drug + MK1775 minus drug alone) (Z-score); higher = stronger synergistic S-phase DNA damage with MK1775
# Conditions: MK1775 concentration 400 nM; first compound 10 µM; 4 h
row,SMILES,Z' of S-phase gammaH2AX difference (Z-score)
1,Nc1nnc(-c2cccc(Cl)c2Cl)c(N)n1 [Lamotrigine] + C=CCn1c(=O)c2cnc(Nc3ccc(N4CCN(C)CC4)cc3)nc2n1-c1cccc(C(C)(C)O)n1 [MK1775],inactive: -0.25
2,CC[C@@]1(O)C(=O)OCc2c1cc1n(c2=O)Cc2cc3c(CN(C)C)c(O)ccc3nc2-1 [Topotecan HCl] + C=CCn1c(=O)c2cnc(Nc3ccc(N4CCN(C)CC4)cc3)nc2n1-c1cccc(C(C)(C)O)n1 [MK1775],active: 2.94
3,O=C1c2ccccc2-c2nc3nonc3nc21 + C=CCn1c(=O)c2cnc(Nc3ccc(N4CCN(C)CC4)cc3)nc2n1-c1cccc(C(C)(C)O)n1 [MK1775],inactive: -0.83
4,Oc1cc(O)cc(/C=C/c2ccc(O)c(O)c2)c1 [Piceatannol] + C=CCn1c(=O)c2cnc(Nc3ccc(N4CCN(C)CC4)cc3)nc2n1-c1cccc(C(C)(C)O)n1 [MK1775],inactive: -0.378
5,Cc1cccc(C2CN(C)CCc3c2cc(O)c(O)c3Cl)c1 (stereo not drawn) + C=CCn1c(=O)c2cnc(Nc3ccc(N4CCN(C)CC4)cc3)nc2n1-c1cccc(C(C)(C)O)n1 [MK1775],inactive: 0.442
6,Cc1nc(N=Nc2cc(S(=O)(=O)O)c3cc([N+](=O)[O-])cc(S(=O)(=O)O)c3c2)c(COP(=O)(O)O)c(C=O)c1O [PPNDS tetrasodium] + C=CCn1c(=O)c2cnc(Nc3ccc(N4CCN(C)CC4)cc3)nc2n1-c1cccc(C(C)(C)O)n1 [MK1775],inactive: 0.99
7,CC(=O)O[C@]1(C(C)=O)CC[C@H]2[C@@H]3C=C(C)C4=CC(=O)CC[C@]4(C)[C@H]3CC[C@@]21C [Megestrol Acetate] + C=CCn1c(=O)c2cnc(Nc3ccc(N4CCN(C)CC4)cc3)nc2n1-c1cccc(C(C)(C)O)n1 [MK1775],inactive: 0.149
8,O=C(OCCN1CCCCC1)c1c[nH]c2ccccc12 + C=CCn1c(=O)c2cnc(Nc3ccc(N4CCN(C)CC4)cc3)nc2n1-c1cccc(C(C)(C)O)n1 [MK1775],inactive: 0.819
9,Cc1cccc(C)c1NC(=O)C[N+](C)(C)C [Lidocaine N-methyl hydrochloride] + C=CCn1c(=O)c2cnc(Nc3ccc(N4CCN(C)CC4)cc3)nc2n1-c1cccc(C(C)(C)O)n1 [MK1775],inactive: -0.77
10,CCCn1c(=O)c2[nH]c(-c3ccc(OCC(=O)NCCN)cc3)nc2n(CCC)c1=O [Xanthine amine congener] + C=CCn1c(=O)c2cnc(Nc3ccc(N4CCN(C)CC4)cc3)nc2n1-c1cccc(C(C)(C)O)n1 [MK1775],inactive: -1.15
11,C[C@H](CCC(=O)NCCS(=O)(=O)O)[C@H]1CC[C@H]2[C@@H]3[C@H](O)C[C@@H]4C[C@H](O)CC[C@]4(C)[C@H]3C[C@H](O)[C@]12C [Sodium Taurocholate] + C=CCn1c(=O)c2cnc(Nc3ccc(N4CCN(C)CC4)cc3)nc2n1-c1cccc(C(C)(C)O)n1 [MK1775],inactive: 0.0301
12,Nc1ccccc1NC(=O)c1ccc(CNc2nccc(-c3cccnc3)n2)cc1 [Mocetinostat (MGCD0103)] + C=CCn1c(=O)c2cnc(Nc3ccc(N4CCN(C)CC4)cc3)nc2n1-c1cccc(C(C)(C)O)n1 [MK1775],inactive: -0.0791
13,CC1=C(C(=O)O)N2C(=O)[C@@H](NC(=O)[C@H](N)c3ccccc3)[C@H]2SC1 [Cephalexin hydrate] + C=CCn1c(=O)c2cnc(Nc3ccc(N4CCN(C)CC4)cc3)nc2n1-c1cccc(C(C)(C)O)n1 [MK1775],inactive: 0.558
14,CCCc1c(OCCCOc2ccc(OCC(=O)O)cc2)ccc(C(C)=O)c1O + C=CCn1c(=O)c2cnc(Nc3ccc(N4CCN(C)CC4)cc3)nc2n1-c1cccc(C(C)(C)O)n1 [MK1775],inactive: 0.085
15,O=c1c2ccccc2[nH]c(=S)n1CCN1CCC(=C(c2ccc(F)cc2)c2ccc(F)cc2)CC1 [Diacylglycerol Kinase Inhibitor II] + C=CCn1c(=O)c2cnc(Nc3ccc(N4CCN(C)CC4)cc3)nc2n1-c1cccc(C(C)(C)O)n1 [MK1775],inactive: 0.182
16,CCSC(N)=Nc1ccc(C(F)(F)F)cc1 [TFPI hydrochloride] + C=CCn1c(=O)c2cnc(Nc3ccc(N4CCN(C)CC4)cc3)nc2n1-c1cccc(C(C)(C)O)n1 [MK1775],inactive: -0.27
17,"CC[C@@H]1Cc2cc(O)ccc2C2=C1c1ccc(O)cc1C[C@H]2CC [(R,R)-cis-Diethyl tetrahydro-2,8-chrysenediol] + C=CCn1c(=O)c2cnc(Nc3ccc(N4CCN(C)CC4)cc3)nc2n1-c1cccc(C(C)(C)O)n1 [MK1775]",inactive: -0.503
18,N=C(N)SCCN [2-(2-Aminoethyl)isothiourea dihydrobromide] + C=CCn1c(=O)c2cnc(Nc3ccc(N4CCN(C)CC4)cc3)nc2n1-c1cccc(C(C)(C)O)n1 [MK1775],inactive: -0.454
19,COc1cc2ncnc(Nc3ccc(F)c(Cl)c3)c2cc1NC(=O)/C=C/CN1CCCCC1 + C=CCn1c(=O)c2cnc(Nc3ccc(N4CCN(C)CC4)cc3)nc2n1-c1cccc(C(C)(C)O)n1 [MK1775],inactive: -0.579
20,Nc1nccc(-c2ccc3noc(-c4ccc(Cl)cc4)c3c2)n1 [PIM-1 Inhibitor 2] + C=CCn1c(=O)c2cnc(Nc3ccc(N4CCN(C)CC4)cc3)nc2n1-c1cccc(C(C)(C)O)n1 [MK1775],inactive: -0.749
21,CCCCC1C(=O)N(c2ccccc2)N(c2ccccc2)C1=O [Phenylbutazone] + C=CCn1c(=O)c2cnc(Nc3ccc(N4CCN(C)CC4)cc3)nc2n1-c1cccc(C(C)(C)O)n1 [MK1775],inactive: 0.199
22,"O=C(O)Cc1ccc(O)c(O)c1 [3,4-Dihydroxyphenylacetic acid] + C=CCn1c(=O)c2cnc(Nc3ccc(N4CCN(C)CC4)cc3)nc2n1-c1cccc(C(C)(C)O)n1 [MK1775]",inactive: 1.44
23,Cc1ccc(C(=O)N(CCCN)[C@@H](c2nc3cc(Cl)ccc3c(=O)n2Cc2ccccc2)C(C)C)cc1 + C=CCn1c(=O)c2cnc(Nc3ccc(N4CCN(C)CC4)cc3)nc2n1-c1cccc(C(C)(C)O)n1 [MK1775],inactive: -0.656

# Given with tabs: entries from further up.
row	SMILES	Z' of S-phase gammaH2AX difference (Z-score)
14	CCCc1c(OCCCOc2ccc(OCC(=O)O)cc2)ccc(C(C)=O)c1O + C=CCn1c(=O)c2cnc(Nc3ccc(N4CCN(C)CC4)cc3)nc2n1-c1cccc(C(C)(C)O)n1 [MK1775]	inactive: 0.085
15	O=c1c2ccccc2[nH]c(=S)n1CCN1CCC(=C(c2ccc(F)cc2)c2ccc(F)cc2)CC1 [Diacylglycerol Kinase Inhibitor II] + C=CCn1c(=O)c2cnc(Nc3ccc(N4CCN(C)CC4)cc3)nc2n1-c1cccc(C(C)(C)O)n1 [MK1775]	inactive: 0.182
16	CCSC(N)=Nc1ccc(C(F)(F)F)cc1 [TFPI hydrochloride] + C=CCn1c(=O)c2cnc(Nc3ccc(N4CCN(C)CC4)cc3)nc2n1-c1cccc(C(C)(C)O)n1 [MK1775]	inactive: -0.27
17	CC[C@@H]1Cc2cc(O)ccc2C2=C1c1ccc(O)cc1C[C@H]2CC [(R,R)-cis-Diethyl tetrahydro-2,8-chrysenediol] + C=CCn1c(=O)c2cnc(Nc3ccc(N4CCN(C)CC4)cc3)nc2n1-c1cccc(C(C)(C)O)n1 [MK1775]	inactive: -0.503
